According to the supplement of paper PMC8846439:
Some of the results follow. Repeats are few or missing, and single values can be far off.

The compounds below were run on Trypanosoma brucei brucei bloodstream form L262P (kDNA-independent) (assay: viability Z-score (nuclei count per well, median-polish normalised, relative to plate distribution); higher = more viable parasites (negative = growth inhibition)). Details: 4 days; compound concentration: 10 µM (some Prestwick/PKE rows may be 1 µM / not distinguished).

| Compound | viability Z-score |
| --- | --- |
| C1(c2c(/N=C(\N1)/C)ccc(c2)CN(c1sc(C(N[C@H](C(=O)O)CCC(=O)O)=O)cc1)C)=O [Raltitrexed] | -3.47 |
| N#CC(=NNc1ccc(Cl)cc1)C(N)=S | -4.76 |
| O=C(NC(C)(C)C1=CC(=CC=C1)C(=C)C)N/C2=C/C=C(C=C2)C(=O)N | -4.87 |
| CC[C@@H]1C(=O)C[C@@H](c2ccc([N+](=O)[O-])cc2)N[C@H]1c1ccc([N+](=O)[O-])cc1 | -4.96 |
| Cc1ccc2c(c1)/C(=C/C(=O)c1ccc(Br)s1)C(=O)N2 | -6.94 |
| C/C1=C(/O/N=C1/C)C2=CN=C(/N=C2/C=3OC=CC=3)NC[C@]4([H])OCCC4 | -3.08 |
| O=[N+]([O-])c1cccc(NCc2ccccc2Cl)c1 | -2.67 |
| COCC(=O)Nc1c(I)c(C(=O)NCC(O)CO)c(I)c(C(=O)N(C)CC(O)CO)c1I (centres undefined) [Iopromide] | -4.88 |
| O=C(CCCOc1ccc(Cl)cc1Cl)N1CCCCC1 | -3.26 |
| C=1(N=CC=CN=1)[S]CCOCCO/C2=C/C=CC=C2 | -3.16 |
| CCCCCCCCCCCCC/C=C/[C@@H](O)[C@@H](N)CO [D-erythro-Sphingosine] | -2.58 |
| N#CC(NC/C1=C(\[Cl])C=C/C=C1/[F])=C(C#N)NCC=2[S]C=CC=2 | -1.65 |
| CCn1ncc(C(CC(=O)c2ccccc2)CC(=O)c2ccccc2)c1C | -1.56 |
| [F]C([F])([F])C1=CC=C(C=C1)N2C=N/N=C2/[S]C/C3=N/C(=NO3)COC=4C([Cl])=CC=CC=4[Cl] | -3.38 |
| N#C/C1=C/C=C(/NC(=O)C[S]CC(=O)O)C=C1 | -3.24 |
| CCOC(=O)NC(=S)NC(=O)C(C)(C)C | -6.42 |
| CC[N+](CC)(CC)CCC(O)(c1ccccc1)C1CCCCC1.[Cl-] (centres undefined) [Tridihexethyl chloride] | -7.33 |
| CCOC(=O)N1CCN(C(=O)C(=O)NN)CC1 | -6.11 |
| O=C1Nc2ccccc2/C1=C1/Nc2ccccc2/C1=N\O [Indirubin-3'-monooxime] | -2.72 |
| O=[S](=O)(NC=1N=C(N=C(C=1)OC)OC)C3=C/C=C(/NCC=2C=CC=CC=2O)C=C3 | -3.39 |

Ordered by SMILES length (high to low): eight of the compounds above

| Compound | viability Z-score |
| --- | --- |
| CC[C@@H]1C(=O)C[C@@H](c2ccc([N+](=O)[O-])cc2)N[C@H]1c1ccc([N+](=O)[O-])cc1 | -4.96 |
| C/C1=C(/O/N=C1/C)C2=CN=C(/N=C2/C=3OC=CC=3)NC[C@]4([H])OCCC4 | -3.08 |
| COCC(=O)Nc1c(I)c(C(=O)NCC(O)CO)c(I)c(C(=O)N(C)CC(O)CO)c1I (centres undefined) [Iopromide] | -4.88 |
| O=C(NC(C)(C)C1=CC(=CC=C1)C(=C)C)N/C2=C/C=C(C=C2)C(=O)N | -4.87 |
| CCn1ncc(C(CC(=O)c2ccccc2)CC(=O)c2ccccc2)c1C | -1.56 |
| C=1(N=CC=CN=1)[S]CCOCCO/C2=C/C=CC=C2 | -3.16 |
| CCOC(=O)N1CCN(C(=O)C(=O)NN)CC1 | -6.11 |
| CCOC(=O)NC(=S)NC(=O)C(C)(C)C | -6.42 |

Following part

| Compound | viability Z-score |
| --- | --- |
| CC1=C(C(=O)OCc2ccccc2)[C@@H](c2ccccc2Br)CC(=O)N1 | -1.72 |
| Cc1ccc2c(c1)/C(=C1\SC(=NO)NC1=O)C(=O)N2 | -4.23 |
| O=C4N(NC(=O)[C@@]2(O)C=1C=CC=CC=1C=3C=CC=CC2=3)C(=O)[C@@]6([H])[C@]4([H])[C@]7([H])C=5C=CC=CC=5[C@@]6([H])C=8C=CC=CC7=8 | -5.77 |
| C/N=c1/[nH]/c(=N\c2ccc(S(N)(=O)=O)cc2)onc1N | -5.32 |
| C[C@H]1CCc2ccccc2N1C(=N)N(C)C | -1.1 |
| CSc1nc(Cl)cn(C)c1=O | -5.83 |
| CC(C)(C)CC(C)(C)c1ccc(OCCOCC[N+](C)(C)Cc2ccccc2)cc1 [Benzethonium chloride] | -2.56 |
| O=C(C=Cc1ccc(Br)cc1)NC(=S)NNC(=O)c1ccco1 | -3.87 |
| O=C(C=1/C=C(/[Cl])C=CC=1OC)N(C)C/C2=C/C=CC=C2 | -1.41 |
| N/C2=N/C1=N[S]C(N)=C1C(=N2)NCC=C | -7 |
| O=C2C=1N(CCC)C(=NC=1N(C)C(=O)N2C)[S]CC(=O)N3CCC([H])(CC3)C/C4=C/C=CC=C4 | -2.37 |
| CN(C)NC(=O)C[C@H](C(=O)O)n1ccnc1 | -4.17 |
| CCC(=O)c1cc(Cl)ccc1NC(=O)c1ccccc1Br | -2.67 |
| OC(/C2=C/C(=C1C=CC=C/C1=C2\N)C(O)(C([F])([F])[F])C([F])([F])[F])(C([F])([F])[F])C([F])([F])[F] | -1.97 |
| N/C(=N\OC(=O)c1ccc([N+](=O)[O-])cc1)c1c(Cl)cccc1Cl | -3.1 |
| O[C@]1(CCN(CCC1)C=2N=C(C(=CN=2)C=3O/N=C(/C)C=3)C=4OC=CC=4)C5=NC=CN5C | -3.75 |
| CC1CC2C3CC(F)C4=CC(=O)C=CC4(C)C3(F)C(O)CC2(C)C1(O)C(=O)COC(=O)C(C)(C)C (centres undefined) [Flumethasone pivalate] | -1.92 |
| COc1ccc2ccccc2c1/C=C(/C#N)C(=O)NC1CCCCC1 | -5.47 |
| CC(C)(Sc1cc(C(C)(C)C)c(O)c(C(C)(C)C)c1)Sc1cc(C(C)(C)C)c(O)c(C(C)(C)C)c1 [Probucol] | -4.01 |
